Data on 58 molecules can be found in the supplement of paper PMC12578635.

The other results are listed elsewhere or left out. No stated cut-off is given here; in the data, active = 150% or more and inactive = the rest. Many values rest on one well or one pass, so single values are uncertain.

This assay has as its system Staphylococcus aureus JE2-lux inside RAW 264.7 macrophages. In words: intracellular bacterial bioluminescence relative to DMSO vehicle; higher = higher intracellular bacterial metabolic activity. The following applies: 10 µM; treatment time 4 h; gentamicin 50 µg/ml.
On to `Cc1ccc(NC(=O)CC2SC(=N)NC2=O)cc1` (stereo not drawn), for which the intracellular bacterial bioluminescence was inactive: 120%.
To `COc1ccc(CCNC(=O)Cn2ncn3nc4c(c3c2=O)CCCC4)cc1OC` belongs inactive: 66.7%; to `Cc1ccc(-n2ccn3c(CCCC(=O)O)nnc3c2=O)cc1C`, inactive: 119%.
As to `COc1ccc2nc(NCCCNS(=O)(=O)c3ccc([N+](=O)[O-])cc3)c(C#N)cc2c1`, the intracellular bacterial bioluminescence was inactive: 16.2%.
With `CCOCCCNC(=O)Cn1nc(-c2ccco2)cc(N)c1=O`, the intracellular bacterial bioluminescence was inactive: 95.2%.
As for `Cc1ccc(-c2nc(Cn3nnc(-c4nc(-c5ccccc5Cl)no4)c3C)c(C)o2)cc1`, the intracellular bacterial bioluminescence is inactive: 81.7%.
Turning to `CCOc1cccc(C2Nc3c(C)cc(C)cc3[C@H]3OCCC[C@@H]23)c1OC` (stereo partly drawn), the intracellular bacterial bioluminescence is inactive: 81.2%.
The same measure for `O=C1NC(c2ccc3c(c2)OCO3)C(C(=O)c2ccccc2)C(O)(C(F)(F)F)N1` (stereo not drawn): inactive: 113%; for `N#C/C(=C\c1ccc(-c2ccccc2[N+](=O)[O-])o1)C(=O)Nn1cnnc1`: inactive: 113%; for `COc1ccc(NC(=O)N(CCc2ccc(OC)c(OC)c2)Cc2cc3cc(C)ccc3[nH]c2=O)cc1`: inactive: 65.9%.
The same measure for `COc1ccccc1/C=C/C=C(\C#N)c1nc2ccccc2c(=O)[nH]1`: inactive: 114%.
As to `CN(Cc1cccc2ncccc12)C(=O)c1cnn(-c2ccc(F)cc2)c1`, the intracellular bacterial bioluminescence was inactive: 69.3%.
To `CCc1noc2ncnc(N3CCCC(C(=O)NCc4ccccc4F)C3)c12` (stereo not drawn) belongs inactive: 136%; to `Cc1sc2ncnc(NCCC3=CCCCC3)c2c1S(=O)(=O)N1CCCCC1`, inactive: 101%.
The same measure for `Cc1n[nH]c2c1C(c1cccs1)C(C#N)=C(N)O2` (stereo not drawn): inactive: 106%; for `Clc1cc(Cl)c2nc(N3CCCCC3)sc2c1`: inactive: 90.1%.
Turning to `C=CCOC(=O)C1=C(C)Nc2[nH]c(=O)[nH]c(=O)c2C1c1cccc(O)c1` (stereo not drawn), the intracellular bacterial bioluminescence is inactive: 117%.
To `O=C(O)CCc1nnc(SCC(=O)Nc2ccc(Cl)cc2)[nH]c1=O` belongs inactive: 129%; to `Cc1ccc(NC(=O)NCCNc2nc3cc(C)cc(C)c3cc2C#N)cc1`, inactive: 79.5%; to `CSc1nc2ccc3nc(NC(=O)C4COc5ccccc5O4)sc3c2s1` (stereo not drawn), inactive: 51.3%.
To `Cc1nc(N2CCOCC2)ncc1C(=O)NC1CCCC1` belongs inactive: 119%; to `CCN1C(=O)NC2(CCN(CC(=O)Nc3ccc4c(c3)OCO4)CC2)C1=O`, inactive: 113%.
As for `Cc1cc(CNC(=O)c2c(-c3ccncc3)noc2C)c2[nH]c(C)c(C)c2c1`, the intracellular bacterial bioluminescence was inactive: 101%.
Take `CNS(=O)(=O)c1cc(-c2cc(C(=O)N3CCN(c4ccc(OC)cc4)CC3)n[nH]2)ccc1OC`: the intracellular bacterial bioluminescence was inactive: 97.9%.
Consider `COc1ccc(OC)c(NC(=O)CC2Sc3ccccc3NC2=O)c1` (stereo not drawn), for which the intracellular bacterial bioluminescence is inactive: 79.8%.
In the case of `O=C(NCC1CCCCC1)C1CCCN(C(=O)NCc2ccccc2)C1` (stereo not drawn), the intracellular bacterial bioluminescence is inactive: 127%.
On to `CC1=C(C(=O)Nc2ccccc2F)C(c2ccc(N(C)C)cc2)NC(=O)N1` (stereo not drawn), for which the intracellular bacterial bioluminescence is inactive: 119%.
As to `Cc1ccc(-c2nc3n(CC(=O)N4CCCCC4C)c(C)c(Cc4ccccc4)c(=O)n3n2)cc1` (stereo not drawn), the intracellular bacterial bioluminescence is inactive: 100%.
The same measure for `Cc1cc(SCc2cccc3ccccc23)nc(=O)[nH]1`: inactive: 116%.
The same measure for `N#Cc1cc2cc3c(cc2nc1SCC(=O)N(c1ccccc1)c1ccccc1)OCO3`: inactive: 120%; for `COc1ccccc1N1CCN(S(=O)(=O)c2c[nH]c(=O)[nH]c2=O)CC1`: inactive: 129%.
On to `Cn1c(=O)oc2cc(NS(=O)(=O)c3ccc4c(c3)CCC(=O)N4)ccc21`, for which the intracellular bacterial bioluminescence is inactive: 105%.
For the molecule `O=C(Cn1c(=O)c2cccnc2n(-c2ccccc2)c1=O)Nc1ccc(Br)cc1`, the intracellular bacterial bioluminescence is inactive: 89.2%.
Regarding `Cc1cc(C)c2cc(CNCCCN3CCOCC3)c3nn(C)c(=O)n3c2c1`, the intracellular bacterial bioluminescence is inactive: 16%.
Regarding `N#CC(C(=O)c1ccc(Oc2ccccc2)cc1)=C1Nc2ccccc2N1`, the intracellular bacterial bioluminescence was inactive: 96.4%.
As to `CC(=O)Nc1cccnc1-c1ccc(C(=O)NCCC2=CCCCC2)cc1`, the intracellular bacterial bioluminescence was inactive: 106%.
Regarding `Cc1ccc(C2=NC(C)(C)N=C2SCC(=O)Nc2ccccc2)cc1`, the intracellular bacterial bioluminescence was inactive: 119%.
Take `Cc1nc(NC(c2ccccc2)c2ccccc2)c2nnn(Cc3ccccc3)c2n1`: the intracellular bacterial bioluminescence was inactive: 90.7%.
For the molecule `O=C(CCC(=O)N1CCc2ccccc21)Nc1noc2ccccc12`, the intracellular bacterial bioluminescence was inactive: 60.9%.
Take `COCCNc1c(-c2cccc(F)c2)nc2sc3cc(OC)ccc3n12`: the intracellular bacterial bioluminescence was inactive: 102%.
As for `CCN(CC)Cc1c(O)ccc2c1O/C(=C\c1cccc(OC)c1)C2=O`, the intracellular bacterial bioluminescence was inactive: 96.9%.
Consider `COC(=O)c1ccccc1NC(=O)CSc1nccnc1N1CCSCC1`, for which the intracellular bacterial bioluminescence was inactive: 22.8%.
To `Cc1ccc(C)c(S(=O)(=O)Nc2ccc3nnc(C)n3n2)c1` belongs inactive: 112%; to `Cc1ccc2[nH]c3nc(SCC(=O)Nc4ccc(S(=O)(=O)NC5CC5)cc4)nnc3c2c1`, inactive: 122%.
As for `CC(=O)Nc1ccc(S(=O)(=O)N2CCN=C2SCc2cccc(F)c2)cc1`, the intracellular bacterial bioluminescence is inactive: 114%.
Turning to `Cc1c(C)n(-c2ccc(F)c(F)c2)c2ncnc(NCc3ccc(F)cc3Cl)c12`, the intracellular bacterial bioluminescence was inactive: 89.3%.
Turning to `CCc1ccc(-c2noc3c(=O)n(CCC(=O)Nc4cc(C)ccc4C)cnc23)cc1`, the intracellular bacterial bioluminescence was inactive: 63.1%.
`O=C(NC1CCS(=O)(=O)C1)c1cc2n(n1)CCCN(Cc1ccc(F)cc1)C2=O` (stereo not drawn): the intracellular bacterial bioluminescence is inactive: 104%.
Take `COc1cccc(NC(=O)N2CCC(C(=O)NCC3CCCCC3)CC2)c1`: the intracellular bacterial bioluminescence is inactive: 111%.
In the case of `COc1cccc(OC)c1C(=O)Nc1nc2c(C)c(C)ccc2s1`, the intracellular bacterial bioluminescence is inactive: 99.2%.
The same measure for `CCOC(=O)c1cc([N+](=O)[O-])sc1NC(=O)c1ccc(S(=O)(=O)N2CC(C)CC(C)C2)cc1` (stereo not drawn): inactive: 89.5%; for `Cc1cccc(NC(=O)c2nn(C)c3c2COc2ccccc2-3)n1`: inactive: 85.4%.
As for `Cn1c(NC(=O)C2CCCC2)cc(=O)n(C)c1=O`, the intracellular bacterial bioluminescence was inactive: 126%.
The same measure for `COc1ccc(-c2nsc(SCC(=O)NCc3ccco3)n2)cc1`: inactive: 78.3%; for `CCS(=O)(=O)Nc1ccc(C2=NN(C(C)=O)C(c3ccc(Cl)o3)C2)cc1` (stereo not drawn): inactive: 97.3%; for `CCC(C)Sc1nc2c(c(=O)[nH]1)C(c1ccccc1)C1=C(CCCC1=O)N2` (stereo not drawn): inactive: 102%.
As to `CCOc1ccc2ccccc2c1C(=O)NCc1n[nH]c(=O)c2ccccc12`, the intracellular bacterial bioluminescence was inactive: 96.1%.
On to `CCCn1c(=O)c(=O)[nH]c2cc(-c3noc(CCNS(=O)(=O)c4ccc(C)cc4)n3)ccc21`, for which the intracellular bacterial bioluminescence is inactive: 88.6%.
